Measured values as given in US20120329784A1, “COMPOUNDS AND METHODS” (priority 2010, published 2012).
Structures can show the parent of a compound that is named as a salt. Some results were stated once for a whole list of compounds, not compound by compound.

Biological target: T1, Full length human TNNI3K (hTNNI3K) (Homo sapiens, UniProt Q59H18)
T1 construct: His-MBP-TEV-Full length human TNNI3K (hTNNI3K); His (N); MBP (N); TEV cleavage site (N); made in house; host or cells: baculovirus expression system (printed 'Baculokinase system')
T1 sequence (Q59H18 1-835): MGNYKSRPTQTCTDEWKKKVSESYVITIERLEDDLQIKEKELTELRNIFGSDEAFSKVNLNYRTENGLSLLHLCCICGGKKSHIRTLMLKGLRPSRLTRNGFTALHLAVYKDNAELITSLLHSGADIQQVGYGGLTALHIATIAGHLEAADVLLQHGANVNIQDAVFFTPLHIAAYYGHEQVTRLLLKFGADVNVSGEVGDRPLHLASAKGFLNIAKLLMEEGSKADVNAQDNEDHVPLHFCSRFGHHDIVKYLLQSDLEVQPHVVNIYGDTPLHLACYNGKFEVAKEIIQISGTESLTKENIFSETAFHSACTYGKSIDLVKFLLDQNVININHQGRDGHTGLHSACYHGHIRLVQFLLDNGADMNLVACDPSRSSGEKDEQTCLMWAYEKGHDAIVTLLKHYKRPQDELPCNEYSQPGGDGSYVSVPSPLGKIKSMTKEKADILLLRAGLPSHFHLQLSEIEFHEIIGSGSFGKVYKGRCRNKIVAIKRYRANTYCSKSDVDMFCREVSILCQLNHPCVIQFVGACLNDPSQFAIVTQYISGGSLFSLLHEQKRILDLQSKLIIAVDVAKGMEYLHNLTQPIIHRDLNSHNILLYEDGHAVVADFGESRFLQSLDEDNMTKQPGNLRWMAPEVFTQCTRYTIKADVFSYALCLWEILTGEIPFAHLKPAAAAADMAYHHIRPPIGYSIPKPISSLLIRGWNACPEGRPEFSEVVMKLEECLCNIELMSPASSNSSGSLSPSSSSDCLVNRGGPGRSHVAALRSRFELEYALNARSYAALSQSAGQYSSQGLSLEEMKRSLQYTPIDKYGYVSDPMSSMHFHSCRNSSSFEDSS
Experiment: Fluorescent polarization assay of compound inhibition on hTNNI3K ATP binding (Biological Assay Method I)
Details: mean of a minimum of 2 experiments; displacement of fluorescent ligand from hTNNI3K ATP binding pocket; 60 min at rt

pXC50, ≥ 6.0:
CNS(=O)(=O)c1cccc(Nc2cc(Nc3cccc(F)c3)ncn2)c1 [Example 101, 3-({6-[(3-fluorophenyl)amino]-4-pyrimidinyl}amino)-N-methylbenzenesulfonamide trifluoroacetate]
CNS(=O)(=O)c1ccc(SC)c(Nc2cc(Nc3ccc4c(C)cc(=O)[nH]c4c3)ncn2)c1 [Example 162, N-methyl-3-(6-(4-methyl-2-oxo-1,2-dihydroquinolin-7-ylamino)pyrimidin-4-ylamino)-4-(methylthio)benzenesulfonamide trifluoroacetate]
CNS(=O)(=O)c1cccc(Nc2cc(Nc3ccc4c(c3)CCCC4=O)ncn2)c1 [Example 184, N-methyl-3-[6-(5-oxo-5,6,7,8-tetrahydro-naphthalen-2-ylamino)-pyrimidin-4-ylamino]-benzenesulfonamide trifluoroacetate]
CNS(=O)(=O)c1ccc(S(C)(=O)=O)c(Nc2cc(Nc3ccc4ncccc4c3)ncn2)c1 [Example 307, N-methyl-4-(methylsulfonyl)-3-{[6-(6-quinolinylamino)-4-pyrimidinyl]amino}benzenesulfonamide]
CNS(=O)(=O)c1cccc(Nc2cc(Nc3ccc(F)c(F)c3)ncn2)c1 [Example 177, 3-[6-(3,4-difluoro-phenylamino)-pyrimidin-4-ylamino]-N-methyl-benzenesulfonamide trifluoroacetate]
CNS(=O)(=O)c1cccc(Nc2cc(Nc3cccc(C(N)=O)c3)ncn2)c1 [Example 51, 3-{[6-({3-[(methylamino)sulfonyl]phenyl}amino)-4-pyrimidinyl]amino}benzamide]
